# Test results reported in PubChem BioAssay AID1487 (National Center for Advancing Translational Sciences (NCATS), 2009).
# Several values for one entry are separate records, joined by “and”; a condition that tells them apart may be missing. Identical values can stand only once. The list shows a part of the results. The main result of the screen is listed elsewhere. These columns were measured beside it and carry no call. The list favours compounds with an active or inconclusive main result. The note in brackets gives the kind of curve behind each potency; many fits are weak.
# Assay: qHTS Assay for Modulators of Lamin A Splicing
# Settings: HeLa LMNA splicing GFP/RFP minigene ratio, 48 h
# In short: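 S3 HeLa stable clones carrying a lamin A-EGFP splicing minigene plus DsRed2 were seeded at 600 cells/well in Opti-MEM with 2% FBS, pin-dosed and incubated 48 h at 37°C. Acumen cytometry (488 nm) gave the GFP/RFP total-intensity ratio.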
# [1] = measured here: RFP viability control channel
# [2] = measured here: GFP splicing reporter channel
SMILES,AC50 [1],AC50 [2]
CN(C)C(=O)Oc1ccc2ccccc2c1Cl,"35.5 µM [rising, single point]",–
N#CC(C#N)=Cc1ccc([N+](=O)[O-])c(O)c1,"35.5 µM [rising, single point]","25.1 µM [rising, single point]"
O=c1cccc2n1CC1CC2CN(Cc2cccc(Cl)c2Cl)C1 (configuration not stated),"11.2 µM [rising, partial curve]",–
CN1C(=O)CCS(=O)(=O)[C@@H]1c1ccc(Cl)cc1,–,"0.447 µM [falling, full curve]"
CC(C)C(=O)Nc1ccc(S(=O)(=O)N2CC3CC(C2)c2cccc(=O)n2C3)cc1 (configuration not stated),"0.316 µM [falling, full curve, poor fit]","0.0398 µM [falling, full curve, poor fit]"
Cc1ccc2c(c1)C1CN(C)CCC1N2S(=O)(=O)c1ccccc1 (configuration not stated),–,"5.62 µM [rising, single point]"
Oc1ccc(C2NCc3ccccc3-n3cccc32)cc1Cl (configuration not stated),"11.2 µM [rising, single point]",–
O=C(Nc1ccon1)c1cccn(Cc2cccc(Cl)c2)c1=O,–,"1.41 µM [falling, full curve]"
CC(C)CCCC(C)C1CCC2C3CC(O)[C@@]4(O)CC(O)CC[C@@]4(C)C3CC[C@@]12C (some centres not stated),"12.6 µM [falling, partial curve]","12.6 µM [falling, partial curve]"
CCOC(=O)C(O)(c1ccc(NC(=S)NC(=O)c2ccc(Cl)cc2Cl)c(C)c1)C(F)(F)F (configuration not stated),"8.91 µM [rising, partial curve]","7.94 µM [rising, partial curve]"
CC(=O)Nc1ccc(OC(=O)N(C)C)cc1,–,"11.2 µM [rising, single point]"
CCn1cnc2c(Nc3cccc(Cl)c3)nc(N[C@@H]3CCCC[C@@H]3N)nc21,"2.82 µM [falling, full curve]","3.16 µM [falling, full curve]"
CCOC(=O)c1cccc(NS(=O)(=O)c2ccc(NC(C)=O)cc2)c1,"5.01 µM [rising, partial curve]",–
CC[C@]1(c2cccc(O)c2)CCCCN(C)C1,–,"1.26 µM [falling, single point]"
CC1OC(C)OC(C)O1 (configuration not stated),"10 µM [falling, partial curve]","0.631 µM [falling, full curve, poor fit]"
C=CCN1C(=O)/C(=C/c2cccs2)C(=O)NC1=S,–,"2.82 µM [falling, partial curve, poor fit]"
CCn1c(O)c(/C=N/N2CCOCC2)c(=O)n(CC)c1=S,"35.5 µM [rising, single point]","35.5 µM [rising, single point]"
CCCOP(=O)(OCCC)C(Nc1ccc(C(C)C)cc1)c1ccc([N+](=O)[O-])cc1 (configuration not stated),"11.2 µM [rising, partial curve]",–
COc1cc(-c2ccc(=O)[nH]n2)ccc1OC(F)F,"35.5 nM [falling, full curve, poor fit] and 1 µM [falling, full curve] and 631 nM [falling, full curve]","11.2 nM [falling, full curve] and 1.41 µM [rising, partial curve] and 891 nM [falling, full curve]"
CCC(=NCCC(c1ccccc1)c1ccccc1)c1c(O)n(C)c(=O)n(C)c1=O,"0.355 µM [rising, partial curve]",–
CCCCCCCCCC[N+](C)(C)CCCCCCCCCC,–,"0.00562 µM [falling, full curve, poor fit]"
c1ccc2c(CCNCc3ccc4c(c3)OCO4)c[nH]c2c1,"10 µM [rising, partial curve, poor fit]",–
CCOc1ccc(NC(=O)C(=S)NC2CCCCC2)cc1,"35.5 µM [falling, single point]",–
O=C(c1cc2c(s1)CCCC2)N1CCC2(CC1)OCCO2,–,"1.41 µM [rising, full curve, poor fit]"
COc1cc(C)c(CN2CCN(c3ccccc3)CC2)cc1C,"12.6 µM [rising, single point]",–
NCCc1c[nH]c2ccc(C(N)=O)cc12,"28.2 µM [rising, partial curve, poor fit]","0.00891 µM [rising, full curve, poor fit]"
CCOC(=O)c1c(-n2c(C)cc(C=C3C(=O)NC(=O)NC3=O)c2C)sc2c1CCCC2,"31.6 µM [falling, single point]","35.5 µM [falling, single point]"

SMILES,AC50 [1],AC50 [2]
Nc1ccc2c3c(cccc13)CC2,"20 µM [falling, partial curve, poor fit]","17.8 µM [falling, partial curve, poor fit]"
C[C@@]12CCC3C(CCC4=CC(=O)CC[C@]43C)C1CCC2O (some centres not stated),"10 µM [falling, partial curve]","22.4 µM [falling, single point]"
Cc1ccc(C)c(N2CCN(C(=O)CCS(=O)(=O)c3ccc4c(c3)oc(=O)n4C)CC2)c1,"0.01 µM [falling, full curve, poor fit]",–
O=c1oc2ccccc2c(O)c1C(c1ccc([N+](=O)[O-])cc1)c1c(O)c2ccccc2oc1=O,"0.316 µM [falling, partial curve, poor fit]",–
CCCCCCCCC(=O)NCc1ccc(O)c(OC)c1,–,"5.62 µM [rising, single point]"
CC(=O)[C@@H]1CC[C@@H]2[C@@H]3CCC4=CC(=O)CC[C@@]4(C)[C@H]3CC[C@]21C,"6.31 µM [falling, partial curve]","7.94 µM [falling, partial curve]"
CC(NC(=O)Cc1cccc2ccccc12)C(=O)N1CCC(=O)CC1 (configuration not stated),"20 µM [rising, partial curve, poor fit]",–
Cc1cc(OC(=O)c2ccco2)c2c3c(c(=O)oc2c1)CCC3,"15.8 µM [rising, partial curve]","14.1 µM [rising, single point]"
CSC1=NP(=S)(SC)N2CCCC2=C1C#N (configuration not stated),"35.5 µM [rising, single point]",–
CN1C(=O)C(O)N=C(c2ccccc2)c2cc(Cl)ccc21 (configuration not stated),"0.282 µM [falling, partial curve]","0.0794 µM [falling, full curve]"
CCN1CCN(C(=O)COc2cc(=O)n(CC)c3ccccc23)CC1,"11.2 µM [rising, partial curve, poor fit]",–
CCC(C(N)=O)N1CCCC1=O (configuration not stated),"35.5 µM [falling, single point]","6.31 µM [falling, single point]"
Cc1ccccc1NC1=NCC(C)S1 (configuration not stated),"15.8 µM [rising, single point]",–
NC(C(=O)O)c1cc(=O)[nH]o1 (configuration not stated),"6.31 µM [falling, partial curve, poor fit]",–
CCCn1c(C(=O)c2ccc(OC)cc2)nc2ccccc21,"0.282 µM [falling, full curve, poor fit]","0.398 µM [falling, full curve, poor fit]"
O=C(/C=C/c1ccccc1)C1C(=O)c2ccccc2C1=O,"4.47 µM [rising, partial curve, poor fit]",–
O=C(c1cccc(Cl)c1)C1CCCN(Cc2ccon2)C1 (configuration not stated),"3.55 µM [falling, full curve]","6.31 µM [falling, partial curve, poor fit]"
CC(=O)NCCc1c[nH]c2ccccc12,"5.62 µM [falling, single point]",–
C[C@@H]1O[C@@H](O[C@H]2C[C@@H](O)[C@@]3(CO)[C@H]4[C@H](O)C[C@]5(C)[C@@H](C6=CC(=O)OC6)CC[C@]5(O)[C@H]4CC[C@@]3(O)C2)[C@@H](O)[C@H](O)[C@H]1O,"5.62 µM [rising, partial curve, poor fit]","0.398 µM [falling, full curve]"
CCCCCCCCCCCC[N+](C)(C)CCOc1ccccc1,"35.5 µM [rising, single point]","31.6 µM [rising, single point]"
CCCCC/C=C\C/C=C\C/C=C\C/C=C\CCCC(=O)O,"15.8 µM [falling, partial curve]","12.6 µM [falling, partial curve]"
O=C(Nc1nc2c(s1)CCCCCC2)Nc1ccc(F)cc1F,"25.1 µM [falling, partial curve, poor fit]","0.02 µM [falling, full curve, poor fit]"
CCC(=NCCC(c1ccccc1)c1ccccc1)c1c(O)[nH]c(=O)[nH]c1=O,"20 µM [rising, single point]",–
COc1ccc(/C=C/c2cc(O)cc(O)c2)cc1,"11.2 µM [falling, partial curve]","12.6 µM [falling, partial curve]"
CC(C)C[C@H]1C(=O)N2CCC[C@H]2[C@]2(O)O[C@](NC(=O)[C@@H]3C=C4c5cccc6[nH]c(Br)c(c56)CC4N(C)C3)(C(C)C)C(=O)N12 (some centres not stated),"0.794 µM [falling, full curve, poor fit]","35.5 µM [rising, single point]"
CC(=O)Nc1cc([As](=O)(O)O)ccc1O,"5.62 µM [falling, single point]",–
